# PubChem BioAssay AID504764 | Drosophila RNAi Screening Center – 2011
# Aim: 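Knock-downs that raise or lower a Notch target reporter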 (primary screen)
# System: Drosophila Kc167 cells
# Knock-down reagent: long dsRNA against Drosophila genes
# Duration: about 5 days (4 days dsRNA, then 24 h after transfection)
# Treatment: transfection of constitutively active membrane-tethered Notch lacking the extracellular domain, read 24 h later
# Measured: 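Firefly luciferase from an E(spl)m3 reporter with active Notch, plus control-promoter and uninduced reporter wells for normalisation; unnormalised counts, duplicate wells a and b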
# Direction: induced reporter light, run 1, well a and induced reporter light, run 1, well b: higher = more light from the Notch target reporter with active Notch; control promoter light, run 1, well a and control promoter light, run 1, well b: higher = more light from the viral control promoter (cell number, transfection, viability); uninduced reporter light, run 1, well a: higher = more light from the Notch target reporter without active Notch
# Call rule: 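Hit if the duplicate-averaged log2 ratio of induced to control-promoter light gives a plate-wise z beyond ±2, or induced to uninduced beyond ±1.8; weak-control or discordant-duplicate wells dropped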
# Calls: active = modifier hit (raised or lowered Notch signal); inactive = not a hit
# The screen tested about 22,000 reagents; shown is a random part of those with a known target gene and a result. Over the whole deposit, 403 (1.9%) got an active call. 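Unnormalised raw counts per well; ratio z-scores behind the hit calls and whether each hit raises or lowers signal are not deposited.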 The record does not give: the amount of reagent.
The first 2 records, ahead of the listing:
gene,dsRNA,"induced reporter light, run 1, well a","induced reporter light, run 1, well b","control promoter light, run 1, well a","control promoter light, run 1, well b","uninduced reporter light, run 1, well a",outcome
CG33521,DRSC17179,1.03e5,1.21e5,1.40e5,1.61e5,9885,inactive
CG33521,DRSC17211,87335,1.19e5,2.18e5,1.89e5,9532,inactive

Main list, repeating the preview:
gene,dsRNA,"induced reporter light, run 1, well a","induced reporter light, run 1, well b","control promoter light, run 1, well a","control promoter light, run 1, well b","uninduced reporter light, run 1, well a",outcome
CG33521,DRSC17179,1.03e5,1.21e5,1.40e5,1.61e5,9885,inactive
CG33521,DRSC17211,87335,1.19e5,2.18e5,1.89e5,9532,inactive
CG15345 (retired record),DRSC18030,1.51e5,1.54e5,3.15e5,2.54e5,10305,inactive
CG13155,DRSC06280,94135,88485,1.20e5,1.04e5,8870,inactive
CG14780,DRSC18566,1.57e5,1.82e5,2.41e5,2.70e5,11288,inactive
Dscam2 (Down syndrome cell adhesion molecule 2),DRSC08869,1.83e5,1.70e5,1.84e5,1.59e5,12650,inactive
Dscam2 (Down syndrome cell adhesion molecule 2),DRSC10198,1.99e5,2.20e5,2.08e5,1.83e5,7070,inactive
Dscam2 (Down syndrome cell adhesion molecule 2),DRSC11018,1.78e5,1.35e5,1.75e5,1.53e5,6892,inactive
Dscam2 (Down syndrome cell adhesion molecule 2),DRSC11019,1.22e5,1.72e5,1.59e5,1.30e5,3010,inactive
NAT1,DRSC06854,45460,46030,56175,55495,4995,inactive
ChLD3 (Chitin and LDLR binding deacetylase 3),DRSC02640,1.36e5,1.28e5,1.58e5,1.79e5,11290,inactive
nmdyn-D7,DRSC17016,76930,80755,89425,64155,5620,inactive
CG10803,DRSC17763,1.87e5,2.06e5,2.25e5,2.47e5,13690,inactive
MED15 (Mediator complex subunit 15),DRSC00267,20465,19995,13740,12978,6225,inactive
CG4554,DRSC04473,1.57e5,1.50e5,1.75e5,1.87e5,11700,active
CG10132,DRSC02013,1.72e5,2.19e5,1.68e5,1.71e5,15575,inactive
CG10209,DRSC05980,2.26e5,1.86e5,1.51e5,1.53e5,14365,inactive
CG5391,DRSC15790,1.61e5,1.43e5,1.95e5,1.88e5,11485,inactive
CG42780,DRSC17514,71005,64135,75055,74100,6050,inactive
CG13739,DRSC06410,17635,15450,12460,11600,3920,inactive
